{"source": "patent US20230181677A1", "about": "“POLYPEPTIDE FOR PROMOTING BONE REGENERATION OR BONE FORMATION AND ITS USE” (SEWON BIOTECHNOLOGY INC., priority 2016, published 2023)", "tested_on": "immunocompromised mice (NIH-bg-nu/nu-xid), xenograft bone graft model", "assay": "xenograft bone regeneration experiment using mouse (Bio-Oss + hDPSC graft on the back)", "type": "in vivo", "note": "Not every detail of the peptide structures is certain; ends, links or a residue may be inferred. Where no end group is shown, it is not given here.", "data": [{"sequence": "RQLVVKFRALPC [present peptide]", "values": [{"measurement": "amount of hard tissue formed (H&E staining)", "setting": "3 weeks after graft, peptide 10 μg, BMP-2 2 μg", "value": "remarkably increased"}, {"measurement": "angiogenesis in newly formed hard tissue, CD31 immunohistochemical staining", "setting": "compared to the positive control (BMP-2)", "value": "excellent blood vessel formation"}, {"measurement": "characteristics of regenerated hard tissue, osteocalcin immunohistochemical staining", "setting": "compared with BMP-2 treatment", "value": "no difference in the characteristics of hard tissue regenerated"}]}]}
